Values from PubChem BioAssay AID1224830 (NIAID, 2016)
Here is a random part of about 18,000 reagents tested. Of all reagents, about 2,900 (16%) were called active. 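Calls are made per well; low scores hint the gene aids the LPS response, high scores that it dampens it.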 A number with no mark means an inactive call. Repeated entries: four replicate wells of each siRNA pool.

Purpose: 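Genes whose knock-down alters the TNF-alpha reporter response to LPS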 (primary screen)
Cells: human THP-1 monocytic leukaemia cells, TNF dual-luciferase reporter clone, PMA-differentiated to macrophage-like cells
Reagent: siRNA pool against human genes, 50 nM
Timing: LPS for 4 h, given about 3 days after siRNA transfection
Challenge: bacterial LPS (TLR4 ligand), 10 ng/ml
Measured: 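TNF firefly reporter luminescence divided by renilla, normalised to the plate median, then turned into a robust z-score for each replicate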
Direction: TNF reporter robust z-score: higher = stronger TNF reporter response to LPS
Hit rule: 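a well is active when its z-score exceeds 2.8 or falls below -1.5; control wells carry no call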

MAP1LC3B → TNF reporter robust z-score: -0.19
MAP1LC3B → TNF reporter robust z-score: 0.06
MAP1LC3B → TNF reporter robust z-score: -1.43
MAP1LC3B → TNF reporter robust z-score: 0.02
ZNF250 → TNF reporter robust z-score: -0.03
ZNF250 → TNF reporter robust z-score: 0.21
ZNF250 → TNF reporter robust z-score: 0.33
ZNF250 → TNF reporter robust z-score: 0.39
PLA2G7 → TNF reporter robust z-score: -0.12
PLA2G7 → TNF reporter robust z-score: 0.03
PLA2G7 → TNF reporter robust z-score: -0.2
PRKCH → TNF reporter robust z-score: 1.56
PRKCH → TNF reporter robust z-score: 1.43
PRKCH → TNF reporter robust z-score: 1.41
PRKCH → TNF reporter robust z-score: 2.41
EPHA10 → TNF reporter robust z-score: -0.47
EPHA10 → TNF reporter robust z-score: -0.57
EPHA10 → TNF reporter robust z-score: -0.64
EPHA10 → TNF reporter robust z-score: -0.17
ABCB5 → TNF reporter robust z-score: -0.24
ABCB5 → TNF reporter robust z-score: -0.27
ABCB5 → TNF reporter robust z-score: -1.16
ABCB5 → TNF reporter robust z-score: 0.09
GHITM → TNF reporter robust z-score: -0.46
GHITM → TNF reporter robust z-score: -0.16
GHITM → TNF reporter robust z-score: -0.41
GHITM → TNF reporter robust z-score: 0.94
FGG → TNF reporter robust z-score: 0.15
FGG → TNF reporter robust z-score: -0.04
FGG → TNF reporter robust z-score: 0.14
FGG → TNF reporter robust z-score: -0.03
HAVCR1 → TNF reporter robust z-score: -0.89
HAVCR1 → TNF reporter robust z-score: -0.77
HAVCR1 → TNF reporter robust z-score: -0.37
HAVCR1 → TNF reporter robust z-score: -0.41
SLAMF6 → TNF reporter robust z-score: 1.49
SLAMF6 → TNF reporter robust z-score: 1.51
SLAMF6 → TNF reporter robust z-score: 1.66
SLAMF6 → TNF reporter robust z-score: 3.6 (active)
TAS2R9 → TNF reporter robust z-score: 0.54
TAS2R9 → TNF reporter robust z-score: 1.54
TAS2R9 → TNF reporter robust z-score: 1.22
TAS2R9 → TNF reporter robust z-score: -0.45
WFDC10A → TNF reporter robust z-score: 0.05
WFDC10A → TNF reporter robust z-score: 0.38
WFDC10A → TNF reporter robust z-score: 0.27
WFDC10A → TNF reporter robust z-score: 0.56

A stretch taken from the entries so far:
HAVCR1 → TNF reporter robust z-score: -0.41
SLAMF6 → TNF reporter robust z-score: 1.49
SLAMF6 → TNF reporter robust z-score: 1.51
SLAMF6 → TNF reporter robust z-score: 1.66
SLAMF6 → TNF reporter robust z-score: 3.6 (active)
TAS2R9 → TNF reporter robust z-score: 0.54
